Measured values published in PubChem BioAssay AID192 (DTP/NCI, 2004).
The list does not hold the whole screen: it is rich in T/C values a quarter to a half above the control, in often repeated tests (any T/C) and in doses without a T/C. Other doses and runs of a compound stand elsewhere. T/C gives the treated animals as a percentage of the vehicle group. Some doses have a count of surviving animals in place of a T/C: the source files T/C as zero there, which appears to mark a toxic dose or a test without result, not a measured value. Some survivor counts are full or nearly so, which does not show that the dose was tolerated: the source hardly ever lists a survival T/C far under the control, and the zero likely stands for such cases as well. Counts of survivors are from the toxicity check (mostly the fifth day) where no day follows; animals may have died later. Schedule codes are those of the source, taken here to give the interval after Q, in days (D) or hours (H), and the number of doses after X. Some entries were tested several times; their values stand side by side, smallest first. For survival time, the PubChem record calls one and a half times the control and up active, and a quarter to a half above the control has no call in these data; cut-offs in other NCI protocols can differ.

System: BDF1 mice, B16 melanoma ip, median survival T/C
Assay: NCI In Vivo Anticancer Drug Screen. Data for tumor model B16 Melanoma (intraperitoneal) in B6D2F1 (BDF1) mice
Conditions: T/C endpoint: median survival time, higher T/C = longer survival
Method in brief: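 Vehicle-treated animals serve as the reference (C); treated animals (T) are scored for survival or tumor size after tumor transplantation.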

[1] = dose: 100.0 mg/kg/injection, schedule: Q01DX009 (ip), vehicle: saline with Tween-80
[2] = dose: 200.0 mg/kg/injection, schedule: Q01DX009 (ip), vehicle: saline with Tween-80
[3] = dose: 25.0 mg/kg/injection, schedule: Q01DX009 (ip), vehicle: saline with Tween-80
[4] = dose: 400.0 mg/kg/injection, schedule: Q01DX009 (ip), vehicle: saline with Tween-80
[5] = dose: 64.0 mg/kg/injection, schedule: Q01DX009 (ip), vehicle: water
[6] = dose: 400.0 mg/kg/injection, schedule: Q01DX009 (ip), vehicle: Klucel (hydroxypropylcellulose) (HPC)
[7] = dose: 200.0 mg/kg/injection, schedule: Q01DX009 (ip), vehicle: Klucel (hydroxypropylcellulose) (HPC)
[8] = dose: 25.0 mg/kg/injection, schedule: Q01DX009 (ip), vehicle: Klucel (hydroxypropylcellulose) (HPC)
[9] = dose: 50.0 mg/kg/injection, schedule: Q01DX009 (ip), vehicle: Klucel (hydroxypropylcellulose) (HPC)
[10] = dose: 100.0 mg/kg/injection, schedule: Q01DX009 (ip), vehicle: Klucel (hydroxypropylcellulose) (HPC)

Which results are given for CC(C)=CCC/C(C)=C\CCl?
survivor count [1]: 9 of 10; survivor count [2]: 4 of 10

Which results are given for C=C1C(=O)O[C@@H]2/C=C(\C)CC/C=C(/COC(C)=O)C[C@@H](OC(C)=O)[C@@H]12?
survivor count (dose: 4.5 mg/kg/injection, schedule: Q01DX009 (ip), vehicle: acetone): 9 of 10; survivor count (dose: 9.0 mg/kg/injection, schedule: Q01DX009 (ip), vehicle: acetone): 10 of 10; T/C (dose: 36.0 mg/kg/injection, schedule: Q01DX009 (ip), vehicle: acetone): 139 % of control

What does the source list for O=C(N/N=C\c1cc(Br)cc(Br)c1O)N/N=C/c1cc(Br)cc(Br)c1O?
T/C (dose: 12.5 mg/kg/injection, schedule: Q01DX009 (ip), vehicle: saline with Tween-80): 132 % of control; T/C [3]: 91, 107, 134, 168 % of control; T/C (dose: 50.0 mg/kg/injection, schedule: Q01DX009 (ip), vehicle: saline with Tween-80): 130, 136, 140, 159 % of control; T/C [1]: 118, 123, 160, 164 % of control; T/C [2]: 128 and 164 % of control; survivor count [2]: 8 of 10 and 10 of 10; T/C [4]: 157 % of control; survivor count [4]: 6 of 10, 8 of 10, 9 of 10; T/C (dose: 400.0 mg/kg/injection, schedule: Q01DX009 (ip), vehicle: sodium bicarbonate): 126 % of control

How did the T/C (dose: 50.0 mg/kg/injection, schedule: Q01DX009 (ip), vehicle: saline) turn out when COc1cc2cc3c4cc(OC)c(OC)cc4cc[n+]3c(C)c2cc1OC (tested in a mixture with another compound) was run?
The T/C was 125 % of control.

And the survivor count (dose: 64.0 mg/kg/injection, schedule: Q01DX009 (ip), vehicle: clinical formulation)?
Its survivor count is 10 of 10.

What about the survivor count (dose: 64.0 mg/kg/injection, schedule: Q01DX009 (ip), vehicle: other) of the same molecule?
The survivor count was 10 of 10.

And the T/C [5]?
Its T/C is 125 % of control.

And the survivor count [5]?
Its survivor count is 10 of 10.

What about the survivor count (dose: 100.0 mg/kg/injection, schedule: Q04DX003 (ip), vehicle: saline with Tween-80) of the same molecule?
Its survivor count is 10 of 10.

And the survivor count (dose: 128.0 mg/kg/injection, schedule: Q01DX009 (ip), vehicle: Klucel (hydroxypropylcellulose) (HPC))?
Its survivor count is 9 of 10.

What about the survivor count (dose: 128.0 mg/kg/injection, schedule: Q01DX009 (ip), vehicle: clinical formulation) of the same molecule?
The survivor count was 1 of 10 and 8 of 10.

And the survivor count (dose: 128.0 mg/kg/injection, schedule: Q01DX009 (ip), vehicle: other)?
The survivor count was 5 of 10, 7 of 10, 10 of 10.

And the survivor count (dose: 128.0 mg/kg/injection, schedule: Q01DX009 (ip), vehicle: water)?
The survivor count was 7 of 10 and 8 of 10.

And the survivor count (dose: 200.0 mg/kg/injection, schedule: Q01DX009 (ip), vehicle: saline)?
The survivor count was 10 of 10.

And the survivor count (dose: 200.0 mg/kg/injection, schedule: Q01DX009 (ip), vehicle: water)?
The survivor count was 8 of 10.

And the survivor count (dose: 250.0 mg/kg/injection, schedule: Q01DX009 (ip), vehicle: other)?
The survivor count was 0 of 10.

What about the survivor count (dose: 256.0 mg/kg/injection, schedule: Q01DX009 (ip), vehicle: Klucel (hydroxypropylcellulose) (HPC)) of the same molecule?
The survivor count was 0 of 10 and 2 of 10.

What about the survivor count (dose: 256.0 mg/kg/injection, schedule: Q01DX009 (ip), vehicle: clinical formulation) of the same molecule?
The survivor count was 0 of 10.

And the survivor count (dose: 256.0 mg/kg/injection, schedule: Q01DX009 (ip), vehicle: other)?
Its survivor count is 0 of 10.

What about the survivor count (dose: 256.0 mg/kg/injection, schedule: Q01DX009 (ip), vehicle: water) of the same molecule?
The survivor count was 0 of 10 and 1 of 10.

With CC(CN1CCN(C)CC1)CN1c2ccccc2Sc2ccc(C(F)(F)F)cc21 (stereo unspecified) as the molecule, how does the survivor count (dose: 25.0 mg/kg/injection, schedule: Q01DX009 (ip), vehicle: saline) read?
The survivor count was 10 of 10.

For OC1(c2ccccc2)c2ccc(Br)cc2-c2cc(Br)ccc21, which survivor count [4] is on record?
The survivor count was 10 of 10.

With O=C(Nc1ccccc1)Nc1nccs1 as the molecule, how does the survivor count [6] read?
The survivor count was 6 of 10.

Cc1ccc(S(=O)(=O)[O][Pb]([CH3])([CH3])[CH3])cc1 was tested. Which survivor count (dose: 3.0 mg/kg/injection, schedule: Q01DX009 (ip), vehicle: saline) did it give?
The survivor count was 10 of 10.

And the survivor count (dose: 6.0 mg/kg/injection, schedule: Q01DX009 (ip), vehicle: saline)?
Its survivor count is 10 of 10.

What about the survivor count (dose: 12.0 mg/kg/injection, schedule: Q01DX009 (ip), vehicle: saline) of the same molecule?
The survivor count was 7 of 10.

Which survivor count [1] does the source give for O=[N+]([O-])c1ccc(Cl)c2c([N+](=O)[O-])cccc12 here?
The survivor count was 10 of 10.

What about the survivor count [2] of the same molecule?
The survivor count was 10 of 10.

CC(CCc1ccccc1)NC(C)C(O)c1ccc(O)cc1 (stereo unspecified) was tested. Which survivor count [7] did it give?
The survivor count was 6 of 10.

What about the survivor count [6] of the same molecule?
The survivor count was 0 of 10.

What does the source list for CN(C)CCCNC(=S)S?
survivor count (dose: 100.0 mg/kg/injection, schedule: Q04DX003 (ip), vehicle: saline): 0 of 10; survivor count (dose: 200.0 mg/kg/injection, schedule: Q04DX003 (ip), vehicle: saline): 0 of 10; survivor count (dose: 400.0 mg/kg/injection, schedule: Q04DX003 (ip), vehicle: saline): 0 of 10

For CNC(=O)OCc1c(COC(=O)NC)c(C)n(-c2ccc(OC)cc2)c1C, which T/C (dose: 12.5 mg/kg/injection, schedule: Q01DX009 (ip), vehicle: Klucel (hydroxypropylcellulose) (HPC)) is on record?
The T/C was 126 % of control.

What about the T/C [8] of the same molecule?
Its T/C is 129 % of control.

And the T/C [9]?
Its T/C is 135 % of control.

What about the survivor count [10] of the same molecule?
Its survivor count is 10 of 10.

CC(C)N1CSC(=S)N(Cc2ccccc2)C1 was tested. Which survivor count [6] did it give?
The survivor count was 10 of 10.

Which results are given for Cc1ccc(C(C)(C)C[P+](C)(c2ccccc2)c2ccccc2)cc1?
survivor count [8]: 10 of 10; survivor count [9]: 2 of 10; survivor count [10]: 0 of 10; survivor count [7]: 0 of 10

With Cn1c(N)c(N=Nc2ccccc2Cl)c(=O)n(C)c1=O as the molecule, how does the survivor count [1] read?
The survivor count was 10 of 10.

And the survivor count [2]?
Its survivor count is 10 of 10.

For CCCN(C)/N=N/c1nc[nH]c1C(N)=O, which T/C [3] is on record?
The T/C was 129 % of control.

What about the survivor count [1] of the same molecule?
Its survivor count is 10 of 10.

And the survivor count [2]?
Its survivor count is 8 of 10.

O=c1ccc2ccccc2o1 was tested. Which survivor count (dose: 300.0 mg/kg/injection, schedule: Q01DX009 (ip), vehicle: Klucel (hydroxypropylcellulose) (HPC)) did it give?
The survivor count was 1 of 10.

O=C(CC(=O)CC(O)(C(F)(F)F)C(F)(F)F)CC(O)(C(F)(F)F)C(F)(F)F was tested. Which survivor count (dose: 250.0 micrograms/kg/injection, schedule: Q01DX009 (ip), vehicle: saline with Tween-80) did it give?
Its survivor count is 9 of 10.

What about the survivor count (dose: 500.0 micrograms/kg/injection, schedule: Q01DX009 (ip), vehicle: saline with Tween-80) of the same molecule?
The survivor count was 10 of 10.

For COc1ccc(Cl)cc1NC(=O)c1ccccc1C(=O)O, which survivor count [6] is on record?
Its survivor count is 5 of 10.

COc1ccc(NC(=S)Nc2ccccn2)cc1 was tested. Which survivor count [4] did it give?
Its survivor count is 6 of 6.

For Cc1c2ccnc(C(N)=O)c2c(C)c2c1[nH]c1ccccc12, which T/C (dose: 400.0 mg/kg/injection, schedule: Q04DX003 (ip), vehicle: distilled water + Tween-80) is on record?
Its T/C is 134 % of control.

What about the T/C (dose: 800.0 mg/kg/injection, schedule: Q04DX003 (ip), vehicle: distilled water + Tween-80) of the same molecule?
The T/C was 146 % of control.

What does the source list for S=C(NNc1ccccc1)Nc1ccccc1?
survivor count [10]: 9 of 10; survivor count [7]: 5 of 10

C(=C\c1ccncc1)/c1ccncc1 was tested. Which T/C [10] did it give?
The T/C was 130 % of control.

What about the T/C [7] of the same molecule?
Its T/C is 135 % of control.

What about the T/C [6] of the same molecule?
The T/C was 131 % of control.

CCN1/C(=C/C=C/C=C/c2sc3ccccc3[n+]2CC)Sc2ccccc21 was tested. Which survivor count (dose: 0.4 mg/kg/injection, schedule: Q01DX009 (ip), vehicle: saline) did it give?
Its survivor count is 10 of 10.
